In article PMC5424492 one finds binding data, which are given here for four molecules.

Sequences of proteins named here, by UniProt entry; tags and fusion partners are left off.
UniProt O14980: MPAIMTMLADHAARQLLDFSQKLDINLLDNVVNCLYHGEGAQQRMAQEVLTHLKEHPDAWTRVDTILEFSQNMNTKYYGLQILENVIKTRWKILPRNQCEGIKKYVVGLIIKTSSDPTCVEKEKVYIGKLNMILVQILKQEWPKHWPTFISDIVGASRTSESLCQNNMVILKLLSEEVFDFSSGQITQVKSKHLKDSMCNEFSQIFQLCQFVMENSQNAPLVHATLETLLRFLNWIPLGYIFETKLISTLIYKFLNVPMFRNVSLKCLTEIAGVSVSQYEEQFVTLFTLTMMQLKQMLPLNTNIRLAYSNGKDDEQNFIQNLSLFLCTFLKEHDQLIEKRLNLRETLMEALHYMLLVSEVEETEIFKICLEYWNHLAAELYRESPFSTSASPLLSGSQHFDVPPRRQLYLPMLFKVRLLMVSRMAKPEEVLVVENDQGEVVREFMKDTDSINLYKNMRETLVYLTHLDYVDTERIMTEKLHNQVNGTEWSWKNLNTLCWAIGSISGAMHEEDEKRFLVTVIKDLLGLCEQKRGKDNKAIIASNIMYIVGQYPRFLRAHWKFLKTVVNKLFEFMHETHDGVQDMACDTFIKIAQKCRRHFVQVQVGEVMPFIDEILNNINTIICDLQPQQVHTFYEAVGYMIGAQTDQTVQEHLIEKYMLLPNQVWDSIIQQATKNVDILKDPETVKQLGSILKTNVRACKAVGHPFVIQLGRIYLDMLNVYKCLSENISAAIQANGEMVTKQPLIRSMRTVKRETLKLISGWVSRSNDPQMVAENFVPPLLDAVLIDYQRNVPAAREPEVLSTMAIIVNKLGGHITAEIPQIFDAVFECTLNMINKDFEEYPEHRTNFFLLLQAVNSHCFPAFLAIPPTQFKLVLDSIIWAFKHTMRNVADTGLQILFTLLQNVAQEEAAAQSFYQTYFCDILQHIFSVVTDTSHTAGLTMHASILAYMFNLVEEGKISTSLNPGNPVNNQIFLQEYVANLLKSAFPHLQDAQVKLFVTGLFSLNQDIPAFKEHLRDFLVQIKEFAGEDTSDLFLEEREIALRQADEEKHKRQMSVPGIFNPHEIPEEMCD
UniProt Q9HAV4: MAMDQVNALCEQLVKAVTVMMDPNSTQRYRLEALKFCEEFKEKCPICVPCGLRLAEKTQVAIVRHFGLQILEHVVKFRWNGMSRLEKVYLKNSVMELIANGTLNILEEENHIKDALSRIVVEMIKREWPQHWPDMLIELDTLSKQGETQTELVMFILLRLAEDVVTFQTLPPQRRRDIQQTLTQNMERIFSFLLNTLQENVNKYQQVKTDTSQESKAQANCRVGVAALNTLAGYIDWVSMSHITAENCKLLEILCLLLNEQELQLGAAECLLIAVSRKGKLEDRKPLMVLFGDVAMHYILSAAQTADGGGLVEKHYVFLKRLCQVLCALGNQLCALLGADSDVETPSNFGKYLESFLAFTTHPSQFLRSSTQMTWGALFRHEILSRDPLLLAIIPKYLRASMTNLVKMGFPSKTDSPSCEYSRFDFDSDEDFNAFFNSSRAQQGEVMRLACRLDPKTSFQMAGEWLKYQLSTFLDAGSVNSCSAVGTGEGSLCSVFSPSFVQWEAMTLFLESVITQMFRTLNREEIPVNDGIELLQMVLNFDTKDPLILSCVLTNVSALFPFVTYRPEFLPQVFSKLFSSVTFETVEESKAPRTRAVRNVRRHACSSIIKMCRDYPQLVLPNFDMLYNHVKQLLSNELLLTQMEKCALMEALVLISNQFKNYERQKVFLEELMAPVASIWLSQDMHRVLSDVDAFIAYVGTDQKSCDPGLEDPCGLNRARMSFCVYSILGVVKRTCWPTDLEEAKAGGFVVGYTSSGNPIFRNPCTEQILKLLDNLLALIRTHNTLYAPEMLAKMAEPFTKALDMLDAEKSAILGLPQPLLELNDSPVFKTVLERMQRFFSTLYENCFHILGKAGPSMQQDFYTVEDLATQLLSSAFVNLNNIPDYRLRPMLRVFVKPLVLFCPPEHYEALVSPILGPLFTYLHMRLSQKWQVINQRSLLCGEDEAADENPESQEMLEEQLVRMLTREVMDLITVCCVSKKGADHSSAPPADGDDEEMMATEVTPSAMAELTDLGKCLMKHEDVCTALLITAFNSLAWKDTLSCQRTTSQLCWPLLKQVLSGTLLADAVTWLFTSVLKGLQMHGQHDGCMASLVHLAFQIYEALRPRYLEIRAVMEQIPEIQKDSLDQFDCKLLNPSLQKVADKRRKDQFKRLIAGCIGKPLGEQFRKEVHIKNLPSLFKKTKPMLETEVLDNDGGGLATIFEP
UniProt P35611: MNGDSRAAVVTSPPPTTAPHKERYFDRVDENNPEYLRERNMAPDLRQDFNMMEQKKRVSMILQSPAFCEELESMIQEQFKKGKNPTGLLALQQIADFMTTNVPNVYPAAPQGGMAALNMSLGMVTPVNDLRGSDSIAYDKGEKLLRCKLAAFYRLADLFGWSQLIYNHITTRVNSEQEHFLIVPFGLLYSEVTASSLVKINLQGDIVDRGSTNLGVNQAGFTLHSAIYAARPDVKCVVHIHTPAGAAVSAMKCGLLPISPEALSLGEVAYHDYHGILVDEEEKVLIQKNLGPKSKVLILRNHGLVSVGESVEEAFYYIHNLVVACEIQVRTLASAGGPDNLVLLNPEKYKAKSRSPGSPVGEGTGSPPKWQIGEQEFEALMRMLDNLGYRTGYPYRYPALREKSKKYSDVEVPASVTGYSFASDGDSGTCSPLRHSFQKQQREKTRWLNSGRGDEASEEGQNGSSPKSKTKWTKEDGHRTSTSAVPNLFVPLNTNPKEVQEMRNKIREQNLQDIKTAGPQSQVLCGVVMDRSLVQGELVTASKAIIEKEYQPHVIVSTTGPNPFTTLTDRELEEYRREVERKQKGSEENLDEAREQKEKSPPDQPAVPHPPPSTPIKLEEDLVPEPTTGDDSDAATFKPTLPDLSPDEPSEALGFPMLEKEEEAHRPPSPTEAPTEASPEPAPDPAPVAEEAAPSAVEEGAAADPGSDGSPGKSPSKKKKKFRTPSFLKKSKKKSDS
UniProt P35612: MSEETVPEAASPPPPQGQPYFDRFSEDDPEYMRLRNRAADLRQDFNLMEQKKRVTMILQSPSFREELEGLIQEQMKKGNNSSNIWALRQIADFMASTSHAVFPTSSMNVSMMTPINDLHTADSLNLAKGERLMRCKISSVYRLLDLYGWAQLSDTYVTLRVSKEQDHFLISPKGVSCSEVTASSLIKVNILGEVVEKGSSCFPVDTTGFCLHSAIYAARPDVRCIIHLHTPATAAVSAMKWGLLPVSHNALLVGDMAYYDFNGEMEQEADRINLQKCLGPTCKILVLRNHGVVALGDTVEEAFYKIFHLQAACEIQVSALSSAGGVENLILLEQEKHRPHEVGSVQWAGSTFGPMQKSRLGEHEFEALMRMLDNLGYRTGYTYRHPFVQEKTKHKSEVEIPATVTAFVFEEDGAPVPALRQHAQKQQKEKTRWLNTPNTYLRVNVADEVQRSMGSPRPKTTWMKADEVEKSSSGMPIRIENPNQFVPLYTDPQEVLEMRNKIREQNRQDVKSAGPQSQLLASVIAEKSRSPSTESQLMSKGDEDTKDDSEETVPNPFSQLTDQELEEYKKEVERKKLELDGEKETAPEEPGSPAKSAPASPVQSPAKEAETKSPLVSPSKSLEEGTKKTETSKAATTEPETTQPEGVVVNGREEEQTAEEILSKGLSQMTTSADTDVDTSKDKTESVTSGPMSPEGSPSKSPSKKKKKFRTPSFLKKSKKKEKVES
UniProt Q9NQX6: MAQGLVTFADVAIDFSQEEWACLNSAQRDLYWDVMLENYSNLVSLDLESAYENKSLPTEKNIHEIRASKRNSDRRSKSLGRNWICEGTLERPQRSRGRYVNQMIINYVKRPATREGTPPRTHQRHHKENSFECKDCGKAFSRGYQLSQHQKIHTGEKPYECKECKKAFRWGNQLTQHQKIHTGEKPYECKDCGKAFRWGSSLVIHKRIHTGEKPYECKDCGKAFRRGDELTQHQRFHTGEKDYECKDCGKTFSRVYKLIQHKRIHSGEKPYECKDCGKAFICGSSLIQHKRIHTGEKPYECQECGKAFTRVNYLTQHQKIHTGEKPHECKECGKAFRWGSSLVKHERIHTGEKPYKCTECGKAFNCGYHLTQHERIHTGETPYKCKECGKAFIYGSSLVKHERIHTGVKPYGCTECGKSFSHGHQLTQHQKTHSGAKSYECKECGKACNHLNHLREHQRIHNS

No constants are given. Whether binding was seen depends on the method and setting. In cells and extracts the contact can be indirect. Some binding calls cover weakened binding; strength is not graded here. For some assays here: Tags and fused reporters may be left off the sequences shown.

Assay [1] concerns the target CRM1 (chromosomal maintenance 1, also known as exportin1) (human (endogenous in HEK293)) (UniProt O14980). Nature of the assay: co-IP; endogenous CRM1 or exportin5 immunoprecipitated with anti-CRM1 or anti-exportin5 (pre-immune serum as control) from lysates of HEK293 cells transiently expressing HA-ADD proteins, 1% NP-40 lysis buffer; immunoblot with anti-HA. (Immunoblotting shows a protein as a band on a membrane.)

For assay [2], the target named is exportin5 (human (endogenous in HEK293)) (UniProt Q9HAV4). Described as above.
Assay [3] deals with FLAG epitope-tagged ADD1 (UniProt P35611). Description: co-IP; lysates of HeLa and A431 cells stably expressing FLAG-ADD1; pre-immune serum (IgG) as control; which partner was precipitated is not given.

Regarding “HA epitope tagged-ADD1 (adducin 1, α isoform), expressed in HEK293 cells (from UniProt P35611 1-737)”, the binding result in assay [1] is reported as “binds”.
For “HA epitope tagged-ADD2 (adducin 2, β isoform), expressed in HEK293 cells (from UniProt P35612 1-726)”, the binding entry in assay [2] and in assay [1] was “binds” each time.
Take “zinc-finger protein 331 (from UniProt Q9NQX6 1-463)”: the binding result in assay [3] was “binds”.

B1: HA epitope tagged-ADD3 (adducin 3, γ isoform), expressed in HEK293 cells (protein, UniProt Q9UEY8 1-706)
chain: MSSDASQGVITTPPPPSMPHKERYFDRINENDPEYIRERNMSPDLRQDFNMMEQRKRVTQILQSPAFREDLECLIQEQMKKGHNPTGLLALQQIADYIMANSFSGFSSPPLSLGMVTPINDLPGADTSSYVKGEKLTRCKLASLYRLVDLFGWAHLANTYISVRISKEQDHIIIIPRGLSFSEATASNLVKVNIIGEVVDQGSTNLKIDHTGFSPHAAIYSTRPDVKCVIHIHTLATAAVSSMKCGILPISQESLLLGDVAYYDYQGSLEEQEERIQLQKVLGPSCKVLVLRNHGVVALGETLEEAFHYIFNVQLACEIQVQALAGAGGVDNLHVLDFQKYKAFTYTVAASGGGGVNMGSHQKWKVGEIEFEGLMRTLDNLGYRTGYAYRHPLIREKPRHKSDVEIPATVTAFSFEDDTVPLSPLKYMAQRQQREKTRWLNSPNTYMKVNVPEESRNGETSPRTKITWMKAEDSSKVSGGTPIKIEDPNQFVPLNTNPNEVLEKRNKIREQNRYDLKTAGPQSQLLAGIVVDKPPSTMQFEDDDHGPPAPPNPFSHLTEGELEEYKRTIERKQQGLEDAEQELLSDDASSVSQIQSQTQSPQNVPEKLEENHELFSKSFISMEVPVMVVNGKDDMHDVEDELAKRVSRLSTSTTIENIEITIKSPEKIEEVLSPEGSPSKSPSKKKKKFRTPSFLKKNKKKEKVEA
For the molecule B1, the binding result in assay [1] is on record as “binds”.
